Results deposited as PubChem BioAssay AID504744 (Drosophila RNAi Screening Center, 2011)

Purpose: 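Uncover factors, including feedback loops, that control dAkt activation in fly cells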 (primary screen)
System: Drosophila Kc167 cells
Knock-down reagent: long dsRNA against Drosophila genes, 250 ng dsRNA per well of a 384-well plate
Time to read-out: 3 days of knock-down, then overnight serum-free starvation before stimulation
Treatment: bovine insulin at 387 nM for 10 minutes after 12 h without serum
Read-out: 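Per-well phospho-dAkt level from an in-cell fluorescent antibody stain, divided by a DNA-dye signal; log2 residuals turned into z-scores that take cell number into account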
Rule for the call: 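Under insulin, a gene counts as a hit if the average z-score of two replicates lies above 2.5 or below -2.5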
The deposit covers about 23,000 reagents; below is an unselected part of those that have a named target and a result. Over the whole deposit, 98 (0.43%) were called active. 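Only hit calls are given; the phospho-dAkt signals, z-scores and hit direction were not deposited.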 Names joined by + are all predicted targets of the reagent. Reagent sequences are not shown.

| Target gene | DRSC id | call |
| --- | --- | --- |
| ms(2)34Fe | DRSC01905 | inactive |
| put | DRSC17039 | inactive |
| CG42286 (retired record) | DRSC14357 | inactive |
| h-cup + Rbp | DRSC14990 | inactive |
| CG8321 | DRSC07148 | inactive |
| pros | DRSC12856 | inactive |
| pros | DRSC17032 | inactive |
| pros | DRSC22612 | inactive |
| CG31157 | DRSC21832 | inactive |
| LIMK1 | DRSC19811 | inactive |
| CG31219 | DRSC15140 | inactive |
| CG13721 | DRSC08330 | inactive |
| CG7889 | DRSC20066 | inactive |
| CG15880 | DRSC00474 | inactive |
| ND-24 | DRSC19960 | inactive |
| CtsK2 | DRSC06897 | inactive |
| CG9550 | DRSC03262 | inactive |
| Cpr92A | DRSC16000 | inactive |
| RpS23 | DRSC07169 | inactive |
| Gdi | DRSC03330 | inactive |
| CG11309 | DRSC11650 | inactive |
| ebo | DRSC18787 | inactive |
| CG13022 | DRSC09902 | inactive |
| Tim23 | DRSC21240 | inactive |
| CG5043 | DRSC02805 | inactive |
| CG15483 | DRSC02493 | inactive |
| cola + swif | DRSC06826 | inactive |
| cola + swif | DRSC21965 | inactive |
| CG15412 | DRSC00427 | inactive |
| s-cup | DRSC06277 | inactive |
| s-cup | DRSC06278 | inactive |
| Cad96Ca | DRSC14220 | inactive |
| Cad96Ca | DRSC16693 | inactive |
| CG34290 | DRSC13660 | inactive |
| swa | DRSC18842 | inactive |
| CG15249 | DRSC17978 | inactive |
| geko | DRSC10044 | inactive |
| geko | DRSC10045 | inactive |
| Gr59c | DRSC04185 | inactive |
| Fign | DRSC00592 | inactive |
| CG10338 | DRSC02039 | inactive |
| slam | DRSC03240 | inactive |
| Obp83b | DRSC12360 | inactive |
| pad | DRSC14227 | inactive |
| SERCA | DRSC04600 | inactive |
| GABA-B-R2 | DRSC14134 | inactive |
| CG7300 | DRSC03044 | inactive |
| CG16896 | DRSC04284 | inactive |
| rau | DRSC03125 | inactive |
| CG31921 | DRSC00013 | inactive |
| CG10598 | DRSC19358 | inactive |
| CG13895 | DRSC08365 | inactive |
| CG14074 | DRSC10079 | inactive |
| Syn1 | DRSC11803 | inactive |
| Syn1 | DRSC11804 | inactive |
| Dop1R2 | DRSC13958 | inactive |
| Dop1R2 | DRSC15379 | inactive |
| Alg3 | DRSC04700 | inactive |
| para | DRSC19141 | inactive |
| para | DRSC20360 | inactive |
| Rgk2 | DRSC06503 | inactive |
| Rgk2 | DRSC21651 | inactive |
| HDAC1 | DRSC08696 | active |
| Cda9 | DRSC06593 | inactive |
| MCTS1 | DRSC18393 | inactive |
| CG9459 | DRSC16496 | inactive |
| Sec61gamma | DRSC19570 | inactive |
| ssp7 | DRSC18878 | inactive |
| stan | DRSC05234 | inactive |
| stan | DRSC07697 | inactive |
| Acp24A4 | DRSC22352 | inactive |
| Ugt35B1 | DRSC16893 | inactive |
| CG33062 | DRSC22195 | inactive |
| RpS19a | DRSC20281 | inactive |
| CG5946 | DRSC10560 | inactive |
| nAChRalpha3 | DRSC18800 | inactive |
| l(3)87Df | DRSC16982 | inactive |
| prc | DRSC11385 | inactive |
| CG16970 (retired record) | DRSC01310 | inactive |
| CG16970 (retired record) | DRSC02549 | inactive |
| CG6044 | DRSC04522 | inactive |
| CG7627 | DRSC03065 | inactive |
| l(3)72Dn | DRSC10468 | inactive |
| Kaz1-ORFB + Kaz1-ORFA | DRSC08669 | inactive |
| Vsp37A | DRSC18794 | inactive |
| Spn42De | DRSC05011 | inactive |
| Cpr66Cb | DRSC10769 | inactive |
| Hrd3 | DRSC14156 | inactive |
| CG13675 | DRSC08908 | inactive |
| CG13675 | DRSC10034 | inactive |
| gudu | DRSC02820 | inactive |
| CG32448 | DRSC22657 | inactive |
| CG10209 | DRSC05980 | inactive |
| RpS17 | DRSC11271 | inactive |
| dcma | DRSC00246 | inactive |
| dcma | DRSC00338 | inactive |
| CG33144 | DRSC06132 | inactive |
| CG33144 | DRSC07024 | inactive |
| gig | DRSC11351 | active |
| CG31900 (retired record) | DRSC21835 | inactive |
| CG17508 | DRSC07771 | inactive |
| mip130 | DRSC18575 | active |
| Nup98-96 | DRSC14209 | inactive |
| Nup98-96 | DRSC14210 | inactive |
| CG10165 | DRSC02017 | inactive |
| CG46301 | DRSC01916 | inactive |
| p | DRSC16560 | inactive |
| CG14866 | DRSC14989 | inactive |
| CycG | DRSC14324 | inactive |
| CG31064 | DRSC14756 | inactive |
| CG31064 | DRSC15941 | inactive |
| CG31064 | DRSC15942 | inactive |
| CG31064 | DRSC15943 | inactive |
| CG3544 | DRSC00613 | inactive |
| wupA | DRSC20385 | inactive |
| wupA | DRSC22547 | inactive |
| CG9445 | DRSC05006 | inactive |
| CG6236 | DRSC15999 | inactive |
| ste24a | DRSC07314 | inactive |
| nan | DRSC10551 | inactive |
| CG14635 | DRSC17945 | inactive |
| CG13065 | DRSC09948 | inactive |
| sbm | DRSC20185 | inactive |
| BobA | DRSC09889 | inactive |
| l(1)sc | DRSC18789 | inactive |
| alpha-Cat | DRSC11917 | inactive |
| CG13676 | DRSC10035 | inactive |

Records listed above called active, once more:
| Target gene | DRSC id | call |
| --- | --- | --- |
| HDAC1 | DRSC08696 | active |
| gig | DRSC11351 | active |
| mip130 | DRSC18575 | active |

Additional entries follow:
| Target gene | DRSC id | call |
| --- | --- | --- |
| CG31321 | DRSC13028 | inactive |
| dachs | DRSC02072 | inactive |
| dachs | DRSC02191 | inactive |
| Amy-p | DRSC06786 | inactive |
| Fum1 | DRSC18344 | inactive |
| CG31886 | DRSC03248 | inactive |
| CG10195 | DRSC02026 | inactive |
| Taf6 | DRSC11299 | inactive |
| Jon66Ci | DRSC10772 | inactive |
| CG11350 | DRSC08181 | inactive |
| Rab3 | DRSC07523 | inactive |
| CG13870 | DRSC06429 | inactive |
| CG7246 | DRSC18422 | inactive |
| CG6154 | DRSC15977 | inactive |
| CG5783 | DRSC02894 | inactive |
| CG11414 | DRSC04110 | inactive |
| mfas | DRSC16997 | inactive |
| CG32944 | DRSC12138 | inactive |
| CG32944 | DRSC12341 | inactive |
| CG13454 | DRSC10001 | inactive |
| SLC22A | DRSC11826 | inactive |
| SLC22A | DRSC11827 | inactive |
| feo | DRSC19398 | inactive |
| PGRP-SD | DRSC10856 | inactive |
| dgt2 | DRSC02548 | inactive |
| Tl | DRSC16885 | inactive |
| CycE | DRSC03295 | inactive |
| CycE | DRSC03296 | inactive |
| Ugt35E2 | DRSC16083 | inactive |
| Rdh1 | DRSC06812 | inactive |
| ClpX | DRSC15592 | inactive |
| CG11811 | DRSC09862 | inactive |
| CG4210 | DRSC15551 | inactive |
| janA | DRSC16972 | inactive |
| mats | DRSC13562 | inactive |
| mats | DRSC14702 | inactive |
| Cyp4d21 | DRSC03305 | inactive |
| Pgm1 | DRSC10490 | inactive |
| Rab9Fb | DRSC19854 | inactive |
| CG6508 | DRSC02963 | inactive |
| Coq6 | DRSC03040 | inactive |
| Lsm12a | DRSC19702 | inactive |
| CG8841 | DRSC07286 | inactive |
| NijA | DRSC10637 | inactive |
| CG8006 | DRSC10949 | inactive |
| eIF4G2 | DRSC14207 | inactive |
| eIF4G2 | DRSC21739 | inactive |
| Drgx | DRSC00278 | inactive |
| Drgx | DRSC00537 | inactive |
| CG31788 | DRSC01630 | inactive |
| tsr | DRSC04718 | inactive |
| Flad1 | DRSC19898 | inactive |
| sll | DRSC16271 | inactive |
| Eig71Eb | DRSC11149 | inactive |
| CG14606 | DRSC12550 | inactive |
| CtsF | DRSC12056 | inactive |
| CtsF | DRSC12195 | inactive |
| CtsF | DRSC12196 | inactive |
| morgue | DRSC00264 | inactive |
| CG8834 | DRSC07283 | inactive |
| ND-SGDH | DRSC11102 | inactive |
| CG14488 | DRSC06460 | inactive |
| D | DRSC11132 | inactive |
| Vtld + CG42529 | DRSC10102 | inactive |
| CG14989 | DRSC08448 | inactive |
| CG5335 | DRSC06931 | inactive |
| CG14965 | DRSC08424 | inactive |
| Rh4 + sina | DRSC11396 | inactive |
| Prosalpha6T | DRSC02873 | inactive |
| CG12213 | DRSC14478 | inactive |
| CG12213 | DRSC22109 | inactive |
| UQCR-6.4 | DRSC06454 | inactive |
| CG12061 | DRSC20715 | inactive |
